The results in this text go back to PMC11726667 (Journal of Medicinal Chemistry, 2024).

Converted amounts (≈) assume the structure as drawn.

The nature of this data set: physchem. The following applies: pH 8.

`CN1C(=O)c2ccc(NC(=O)[C@@H]3CCCN3S(=O)(=O)c3ccc(Cl)s3)cc2C1=O` [Compound 07] showed a solubility of 50 to 79 µM (≈ 22.7 to 35.9 µg/mL). As for `N#Cc1ccc(N2C(=O)[C@@H]3C(C(=O)c4ccc5ccccc5n4)=NN[C@@H]3C2=O)cc1` [Compound 13], the figure is 199 to 316 µM (≈ 78.7 to 125 µg/mL).
